Results deposited as PubChem BioAssay AID1053208 (Peter MacCallum Cancer Centre, 2014).
This is a random part of about 17,000 reagents tested. Over the whole deposit, 788 (4.7%) got an active call. 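Calls rest on z-score classes alone; an extra cut-off of viability at most 70% of control was not applied to them.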 A number with no mark means an inactive call. Not all columns of the deposit are shown.

- Purpose: 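Find knock-downs that sensitise mouse osteosarcoma cells to doxorubicin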 (primary screen)
- Cells: mouse osteosarcoma cells, early-passage culture from an engineered mouse model of fibroblastic bone tumour
- Reagent: siRNA pool against mouse genes, 40 nM
- Duration: about 120 h (48 h before drug, then 72 h with drug)
- Treatment: doxorubicin 100 nM for 72 h, roughly 30-40% inhibitory dose
- Measured: 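Luminescent ATP signal taken as viability with or without 100 nM doxorubicin for 72 h; mean of two wells set against non-targeting siRNA and turned into robust z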
- Direction: viability z-score with doxorubicin: higher = more viable cells under doxorubicin; viability z-score without drug: higher = more viable cells with knock-down alone
- Active means: 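Called active if knock-down leaves viability unchanged without drug (z within -2 to 2) but lowers it with doxorubicin (z at or under -2)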

Garre1 (GeneID 233103) [SID152324621]
- combined z-score class: no change with or without drug
- viability z-score with doxorubicin: -1.01
- viability z-score without drug: 0

Bnipl (GeneID 171388) [SID152265070]
- combined z-score class: no change with or without drug
- viability z-score with doxorubicin: -0.67
- viability z-score without drug: 0.67

Trpc4 (GeneID 22066) [SID152323087]
- combined z-score class: no change with or without drug
- viability z-score with doxorubicin: -0.34
- viability z-score without drug: 0

Klra22 (GeneID 93969) [SID152269627]
- combined z-score class: no change with or without drug
- viability z-score with doxorubicin: 0.56
- viability z-score without drug: 1.01

Xpa (GeneID 22590) [SID152342531]
- combined z-score class: no change with or without drug
- viability z-score with doxorubicin: 0.22
- viability z-score without drug: 0.17

Gnpda2 (GeneID 67980) [SID152280356]
- combined z-score class: no change with or without drug
- viability z-score with doxorubicin: -1.35
- viability z-score without drug: -0.84

Or1e22 (GeneID 259024) [SID152312915]
- combined z-score class: no change with or without drug
- viability z-score with doxorubicin: -0.67
- viability z-score without drug: -0.17

Ppil2 (GeneID 66053) [SID152308395]
- combined z-score class: no change with or without drug
- viability z-score with doxorubicin: 0.45
- viability z-score without drug: 0.51

Kcna3 (GeneID 16491) [SID152279221]
- combined z-score class: no change with or without drug
- viability z-score with doxorubicin: 0.22
- viability z-score without drug: -0.17

Pla2g4e (GeneID 329502) [SID152281937]
- combined z-score class: no change with or without drug
- viability z-score with doxorubicin: -0.56
- viability z-score without drug: 0.67

Kcmf1 (GeneID 74287) [SID152320536]
- combined z-score class: high cell count without drug only
- viability z-score with doxorubicin: 0
- viability z-score without drug: 2.36

Cyp26a1 (GeneID 13082) [SID152314350]
- combined z-score class: no change with or without drug
- viability z-score with doxorubicin: 0.34
- viability z-score without drug: 0.17

Vegfd (GeneID 14205) [SID152303839]
- combined z-score class: no change with or without drug
- viability z-score with doxorubicin: -0.22
- viability z-score without drug: 0.17

Vmn1r9 (GeneID 171203) [SID152338603]
- combined z-score class: low cell count with doxorubicin only (active)
- viability z-score with doxorubicin: -2.7
- viability z-score without drug: -0.67

Tmeff1 (GeneID 230157) [SID152260774]
- combined z-score class: high cell count with doxorubicin only
- viability z-score with doxorubicin: 2.25
- viability z-score without drug: 1.85

Ntan1 (GeneID 18203) [SID152268804]
- combined z-score class: high cell count with doxorubicin only
- viability z-score with doxorubicin: 2.14
- viability z-score without drug: 0

3 entries from above in another layout.
Pla2g4e (GeneID 329502) [SID152281937] | combined z-score class = no change with or without drug; viability z-score with doxorubicin = -0.56; viability z-score without drug = 0.67
Kcmf1 (GeneID 74287) [SID152320536] | combined z-score class = high cell count without drug only; viability z-score with doxorubicin = 0; viability z-score without drug = 2.36
Cyp26a1 (GeneID 13082) [SID152314350] | combined z-score class = no change with or without drug; viability z-score with doxorubicin = 0.34; viability z-score without drug = 0.17

Continued.
Cd37 (GeneID 12493) [SID152285287]
- combined z-score class: no change with or without drug
- viability z-score with doxorubicin: 1.01
- viability z-score without drug: -0.67

Srgap3 (GeneID 259302) [SID152296759]
- combined z-score class: no change with or without drug
- viability z-score with doxorubicin: -0.9
- viability z-score without drug: 1.01

Plxdc2 (GeneID 67448) [SID152340976]
- combined z-score class: no change with or without drug
- viability z-score with doxorubicin: 0.67
- viability z-score without drug: -1.52

Or11g1 (GeneID 258662) [SID152294875]
- combined z-score class: no change with or without drug
- viability z-score with doxorubicin: 1.24
- viability z-score without drug: 1.69

Scgb2b24 (GeneID 233090) [SID152336864]
- combined z-score class: no change with or without drug
- viability z-score with doxorubicin: -0.67
- viability z-score without drug: -1.52

Tox3 (GeneID 244579) [SID152334705]
- combined z-score class: no change with or without drug
- viability z-score with doxorubicin: 1.12
- viability z-score without drug: 0.67

Btf3 (GeneID 218490) [SID152311907]
- combined z-score class: no change with or without drug
- viability z-score with doxorubicin: 1.24
- viability z-score without drug: -1.52

Zdhhc24 (GeneID 70605) [SID152259806]
- combined z-score class: no change with or without drug
- viability z-score with doxorubicin: -0.22
- viability z-score without drug: -1.01

Fbxw11 (GeneID 103583) [SID152290589]
- combined z-score class: no change with or without drug
- viability z-score with doxorubicin: 1.12
- viability z-score without drug: 0.51

Rbm12b1 (GeneID 72397) [SID152312030]
- combined z-score class: no change with or without drug
- viability z-score with doxorubicin: 0.67
- viability z-score without drug: 0.67

Btrc (GeneID 12234) [SID152262898]
- combined z-score class: no change with or without drug
- viability z-score with doxorubicin: -0.22
- viability z-score without drug: -0.51

Tollip (GeneID 54473) [SID152265415]
- combined z-score class: no change with or without drug
- viability z-score with doxorubicin: -0.67
- viability z-score without drug: -0.84

Caskin2 (GeneID 140721) [SID152326142]
- combined z-score class: no change with or without drug
- viability z-score with doxorubicin: -0.67
- viability z-score without drug: 0.51

Or5k8 (GeneID 259004) [SID152272638]
- combined z-score class: no change with or without drug
- viability z-score with doxorubicin: -0.79
- viability z-score without drug: -1.01

Ptpn6 (GeneID 15170) [SID152338528]
- combined z-score class: no change with or without drug
- viability z-score with doxorubicin: -0.9
- viability z-score without drug: 0.51

Fgfbp1 (GeneID 14181) [SID152271827]
- combined z-score class: no change with or without drug
- viability z-score with doxorubicin: 0.22
- viability z-score without drug: -0.51

C2cd5 (GeneID 74741) [SID152288002]
- combined z-score class: no change with or without drug
- viability z-score with doxorubicin: -0.22
- viability z-score without drug: -0.17

Egflam (GeneID 268780) [SID152259619]
- combined z-score class: no change with or without drug
- viability z-score with doxorubicin: 0.67
- viability z-score without drug: 0.51

Or7g35 (GeneID 258517) [SID152332551]
- combined z-score class: no change with or without drug
- viability z-score with doxorubicin: -0.56
- viability z-score without drug: 0.17

Gtf2b (GeneID 229906) [SID152307878]
- combined z-score class: no change with or without drug
- viability z-score with doxorubicin: -0.67
- viability z-score without drug: 0
